Measurements taken from the supplement of paper PMC3682954.
“And” between values parts separate entries of the source, which are not always exact repeats. Equal values may be shown once. Where a name gives a salt, the structure may show the parent alone. ± gives the standard deviation of the averaged measurements. The list shows a part of the results. Single values are uncertain, as repeats are few or missing.

Tested on: RAW 264.7
Experiment: HMGB1-induced TNF-alpha production relative to HMGB1-stimulated control; higher = more TNF-alpha secretion (less inhibition)
Conditions: stimulus: HMGB1 5 ug/ml, 18 h
[1] = compound concentration: 1 ug/ml

Row | SMILES | HMGB1-induced TNF-alpha production (compound concentration: 3 uM) | HMGB1-induced TNF-alpha production [1] [%]
1 | Cn1cnc2c(NCc3ccccc3)nc(NCCO)nc21 [Olomoucine] | 110% | 
2 | CC1(C)S[C@@H]2[C@H](NC(=O)[C@H](N)c3ccc(O)cc3)C(=O)N2[C@H]1C(=O)O | 87% | 
3 | CC1(C)S[C@@H]2[C@H](NC(=O)[C@H](N)c3ccc(O)cc3)C(=O)N2[C@H]1C(=O)O [Amoxicillin] | 66.3% | 
4 | COc1cccc2c1[C@@H]1CN(CCCCn3c(=O)[nH]c4c(sc5ncc(-c6ccccc6)nc54)c3=O)C[C@@H]1CO2 [Fiduxosin hydrochloride] | 80.3% | 
5 | CN[C@@H]1[C@H](O[C@H]2[C@H](O[C@H]3[C@H](O)[C@@H](O)[C@H](N=C(N)N)[C@@H](O)[C@@H]3N=C(N)N)O[C@@H](C)[C@]2(O)C=O)O[C@@H](CO)[C@H](O)[C@H]1O | 83.9% | 
6 | CN[C@@H]1[C@H](O[C@H]2[C@H](O[C@H]3[C@H](O)[C@@H](O)[C@H](N=C(N)N)[C@@H](O)[C@@H]3N=C(N)N)O[C@@H](C)[C@]2(O)C=O)O[C@@H](CO)[C@H](O)[C@H]1O [Streptomycin sulfate] | 80.4% | 
7 | CN[C@@H]1[C@H](O[C@H]2[C@H](O[C@H]3[C@H](O)[C@@H](O)[C@H](N=C(N)N)[C@@H](O)[C@@H]3N=C(N)N)O[C@@H](C)[C@]2(O)C=O)O[C@@H](CO)[C@H](O)[C@H]1O [Streptomycin] | 109% | 
8 | Cc1cccc(C(=O)O)c1O | 77.5% | 
9 | Nc1nc(Cl)nc2c1ncn2[C@H]1C[C@H](O)[C@@H](CO)O1 | 110% | 
10 | Nc1nc(Cl)nc2c1ncn2[C@H]1C[C@H](O)[C@@H](CO)O1 [Cladribine] | 130% | 
11 | N[C@@H](Cc1cc(I)c(Oc2cc(I)c(O)c(I)c2)c(I)c1)C(=O)O [L-thyroxine] | 94.8% | 
12 | N[C@@H](Cc1cc(I)c(Oc2cc(I)c(O)c(I)c2)c(I)c1)C(=O)O [L-Thyroxine sodium salt hydrate] |  | 73.2
13 | N=C(N)NC(=O)Cc1c(Cl)cccc1Cl [Guanfacine hydrochloride] | 69.5 ± 14% | 
14 | N=C(N)NC(=O)Cc1c(Cl)cccc1Cl | 93.4% | 
15 | N=C(N)NC(=O)Cc1c(Cl)cccc1Cl [Guanfacine] | 124% | 
16 | CN1C[C@H](O)[C@@H](O)[C@H](O)[C@H]1CO [N-Methyl-1-deoxynojirimycin] | 83.5% | 
17 | O=c1cnn([C@@H]2O[C@H](CO)[C@@H](O)[C@H]2O)c(=O)[nH]1 | 78% | 
18 | O=c1cnn([C@@H]2O[C@H](CO)[C@@H](O)[C@H]2O)c(=O)[nH]1 [6-Azauridine] |  | 72.5
19 | C=C1C[C@@]23CC[C@H]4[C@@](C)(CCC[C@@]4(C)C(=O)O)[C@@H]2CC[C@]1(O)C3 [Steviol] | 113% | 
20 | CN1C(=O)CC(c2ccccc2)C1=O (centres undefined) [Phensuximide] | 94.5% | 
21 | COc1ccccc1N1CCN(CCN(C(=O)C2CCCCC2)c2ccccn2)CC1 | 104% | 
22 | Nc1ccn([C@@H]2O[C@H](CO)[C@@H](O)C2(F)F)c(=O)n1 [Gemcitabine] | 117 ± 16% | 
23 | CC1CNc2c(cccc2S(=O)(=O)N[C@@H](CCCNC(=N)N)C(=O)N2CC[C@@H](C)C[C@@H]2C(=O)O)C1 (some centres undefined) [Argatroban] | 106 ± 14% | 
24 | CC1CNc2c(cccc2S(=O)(=O)N[C@@H](CCCNC(=N)N)C(=O)N2CC[C@@H](C)C[C@@H]2C(=O)O)C1 (some centres undefined) | 95.2% | 
25 | CN(C)CCN(Cc1ccccc1)c1ccccn1 | 95.1% and 112% | 

Some of the entries so far, with each value named.
Cn1cnc2c(NCc3ccccc3)nc(NCCO)nc21 [Olomoucine]
  HMGB1-induced TNF-alpha production (compound concentration: 3 uM): 110%
Cc1cccc(C(=O)O)c1O
  HMGB1-induced TNF-alpha production (compound concentration: 3 uM): 77.5%
N[C@@H](Cc1cc(I)c(Oc2cc(I)c(O)c(I)c2)c(I)c1)C(=O)O [L-thyroxine]
  HMGB1-induced TNF-alpha production (compound concentration: 3 uM): 94.8%
N=C(N)NC(=O)Cc1c(Cl)cccc1Cl [Guanfacine hydrochloride]
  HMGB1-induced TNF-alpha production (compound concentration: 3 uM): 69.5 ± 14%

An excerpt of these results, tab-delimited:
Row	SMILES	HMGB1-induced TNF-alpha production (compound concentration: 3 uM)	HMGB1-induced TNF-alpha production [1] [%]
2	CC1(C)S[C@@H]2[C@H](NC(=O)[C@H](N)c3ccc(O)cc3)C(=O)N2[C@H]1C(=O)O	87%	
3	CC1(C)S[C@@H]2[C@H](NC(=O)[C@H](N)c3ccc(O)cc3)C(=O)N2[C@H]1C(=O)O [Amoxicillin]	66.3%	

Next part

Row | SMILES | HMGB1-induced TNF-alpha production (compound concentration: 3 uM) | HMGB1-induced TNF-alpha production [1] [%]
26 | CN(C)CCN(Cc1ccccc1)c1ccccn1 [Tripelennamine hydrochloride] | 106% | 
27 | C=CC1=C(C)c2cc3[nH]c(cc4nc(cc5[nH]c(cc1n2)c(C)c5CCC(=O)O)C(CCC(=O)O)=C4C)c(C)c3C=C | 79.9% | 
28 | C=CC1=C(C)c2cc3[nH]c(cc4nc(cc5[nH]c(cc1n2)c(C)c5CCC(=O)O)C(CCC(=O)O)=C4C)c(C)c3C=C [Protoporphyrin IX disodium] | 38.5% | 
29 | N[C@H](CO)Cc1cnc[nH]1 [L(-)-Histidinol dihydrochloride] |  | 65.1
30 | CC(=O)O[C@@]12CO[C@@H]1C[C@H](O)[C@@]1(C)C(=O)[C@H](O)C3=C(C)[C@@H](OC(=O)[C@H](O)[C@@H](NC(=O)OC(C)(C)C)c4ccccc4)C[C@@](O)([C@@H](OC(=O)c4ccccc4)[C@H]21)C3(C)C [Docetaxel] | 101 ± 9.9% | 
31 | CC(=O)O[C@@]12CO[C@@H]1C[C@H](O)[C@@]1(C)C(=O)[C@H](O)C3=C(C)[C@@H](OC(=O)[C@H](O)[C@@H](NC(=O)OC(C)(C)C)c4ccccc4)C[C@@](O)([C@@H](OC(=O)c4ccccc4)[C@H]21)C3(C)C | 104% | 
32 | OC[C@H]1O[C@@H](Oc2ccc3cc(Br)ccc3c2)[C@H](O)[C@@H](O)[C@H]1O [6-Bromo-2-naphthyl-beta-D-galactopyranoside] |  | 78.5
33 | O=C(OC[C@H]1O[C@@H](n2ccc(=O)[nH]c2=O)[C@H](OC(=O)c2ccccc2)[C@@H]1OC(=O)c1ccccc1)c1ccccc1 [2',3',5'-Tri-O-benzoyluridine] |  | 62.8
34 | Nc1ncnc2c1[nH]c(=S)n2C1OC(CO)C(O)C1O (centres undefined) |  | 86.6
35 | Cc1cccc(-c2cc(=O)c3cc(C)ccc3o2)c1 [3',6-Dimethylflavone] |  | 67.1
36 | Nc1ncnc2c1ncn2[C@@H]1O[C@H](CO)[C@@H](O)[C@H]1O [Adenosine] | 92.7% | 
37 | Nc1ncnc2c1ncn2[C@@H]1O[C@H](CO)[C@@H](O)[C@H]1O | 92.2% | 
38 | Clc1ccc(CSC(Cn2ccnc2)c2ccc(Cl)cc2Cl)cc1 (centres undefined) [Sulconazole nitrate] | 106% | 
39 | Clc1ccc(CSC(Cn2ccnc2)c2ccc(Cl)cc2Cl)cc1 (centres undefined) | 62.5% | 
40 | C[n+]1cc2c3c(ccc2c2ccc4cc5c(cc4c21)OCO5)OCO3 [Sanguinarine chloride] | 20.6% | 
41 | C[n+]1cc2c3c(ccc2c2ccc4cc5c(cc4c21)OCO5)OCO3 | 40.2 ± 42% | 
42 | C[C@]12CC[C@@H]3c4ccc(O)cc4CC[C@H]3[C@@H]1CC[C@@H]2O [Estradiol] | 87.3% | 
43 | C[C@]12CC[C@@H]3c4ccc(O)cc4CC[C@H]3[C@@H]1CC[C@@H]2O [Estradiol-17 beta] | 62.6% | 
44 | C[C@]12CC[C@@H]3c4ccc(O)cc4CC[C@H]3[C@@H]1CC[C@@H]2O [beta-Estradiol] | 77.1% | 
45 | CCCN(CCC)S(=O)(=O)c1ccc(C(=O)O)cc1 [Probenecid] | 66.2% | 
46 | CCCN(CCC)S(=O)(=O)c1ccc(C(=O)O)cc1 | 92.5% | 
47 | O=c1[nH]c(=S)[nH]c(-c2ccccc2)c1Cc1c(O)ccc2ccccc12 [Cambinol] | 73.5% | 
48 | CCSc1ncnc2nc[nH]c12 [6-ethylmercaptopurine] |  | 74.5
49 | COc1ccc2[nH]c([S+]([O-])Cc3ncc(C)c(OC)c3C)nc2n1 (centres undefined) [Tenatoprazole] | 99.9 ± 5.4% | 
50 | CN(C)CCOC(c1ccccc1)c1ccccc1 | 93.1 ± 26% | 

Row | SMILES | HMGB1-induced TNF-alpha production (compound concentration: 3 uM) | HMGB1-induced TNF-alpha production [1] [%]
51 | CN(C)CCOC(c1ccccc1)c1ccccc1 [Diphenhydramine hydrochloride] | 74.7 ± 17% | 
52 | CN(C)CCOC(c1ccccc1)c1ccccc1 [Diphenhydramine] | 102% | 
53 | CC(=O)[C@H]1CC[C@H]2[C@@H]3CCC4=CC(=O)CC[C@]4(C)[C@H]3CC[C@]12C [Progesterone] | 82 ± 16% | 63.9
54 | CC(=O)[C@H]1CC[C@H]2[C@@H]3CCC4=CC(=O)CC[C@]4(C)[C@H]3CC[C@]12C | 94.58 ± 0.94% | 
55 | OC(CN1CCC(Cc2ccc(F)cc2)CC1)c1ccc(Cl)cc1 (centres undefined) [Eliprodil] | 87.7% | 
56 | NC(Cc1cc(I)c(Oc2cc(I)c(O)c(I)c2)c(I)c1)C(=O)O (centres undefined) [Thyroxine (L)] | 92.7% | 
57 | CN(C)CC/C=C1/c2ccccc2Sc2ccc(Cl)cc21 [Chlorprothixene hydrochloride] | 61.4 ± 21% | 
58 | CN(C)CC/C=C1/c2ccccc2Sc2ccc(Cl)cc21 | 95.9% | 
59 | CC(=O)Oc1ccccc1C(=O)O [Acetylsalicylic Acid] | 103% | 
60 | CC(=O)Oc1ccccc1C(=O)O [Acetylsalicylic acid] | 90.5 ± 9% | 
61 | CC(=O)Oc1ccccc1C(=O)O | 84.5% | 
62 | O=C(O)[C@H]1NCCC[C@H]1C(=O)O (racemic) [(±)-cis-Piperidine-2,3-dicarboxylic acid] | 99.8% | 
63 | CC1=C(/C=C/C(C)=C/C=C/C(C)=C/C=C/C=C(C)/C=C/C=C(C)/C=C/C2=C(C)C(=O)[C@@H](O)CC2(C)C)C(C)(C)C[C@H](O)C1=O [Astaxanthin] | 93.3% | 
64 | O=c1[nH]c(=O)n([C@@H]2O[C@H](CO)[C@@H](O)[C@H]2O)cc1Br [5-Bromouridine] |  | 85.7
65 | N=C(N)NS(=O)(=O)c1ccc(N)cc1 [Sulfaguanidine] | 77.2% | 
66 | N=C(N)NS(=O)(=O)c1ccc(N)cc1 | 91.7 ± 3.8% | 
67 | NC[C@@H]1CC[C@@H](N)[C@@H](O[C@H]2[C@H](O)[C@@H](O[C@H]3O[C@H](CO)[C@@H](O)[C@H](N)[C@H]3O)[C@H](N)C[C@@H]2N)O1 | 83.5% | 
68 | CC1=C(/C=C/C(C)=C/C=C/C(C)=C/C(=O)O)C(C)(C)CCC1 [Retinoic acid] | 73.2 ± 33% | 
69 | CC1=C(/C=C/C(C)=C/C=C/C(C)=C/C(=O)O)C(C)(C)CCC1 | 88.2 ± 13% | 
70 | CC1=C(/C=C/C(C)=C/C=C/C(C)=C/C(=O)O)C(C)(C)CCC1 [Retinoic Acid] | 69.9% | 
71 | NC(=O)c1cc[n+](CC2=C(C(=O)[O-])N3C(=O)[C@@H](NC(=O)[C@@H](c4ccccc4)S(=O)(=O)O)[C@H]3SC2)cc1 [Cefsulodin sodium salt] | 123% | 
72 | CC(O)C(O)[C@H]1CNc2nc(N)[nH]c(=O)c2N1 (stereo partly drawn) [(6R)-5,6,7,8-Tetrahydro-L-biopterin hydrochloride] | 108% | 
73 | CC(C)=CC[C@@H](O)C1=CC(=O)c2c(O)ccc(O)c2C1=O [Shikonin] | 11.1% | 
